Test results as given in publication PMC3069076.
These are yes or no findings as the source states them, for the method shown. For part of these data: Binding seen in cells or lysates may run through a third protein. Some results given as binding are weak or reduced against the parent protein; the word gives no strength. One block for each substance: values may come before it.

Sequences of proteins named here, by UniProt entry; tags and fusion partners are left off. A change or cut given only in a name is not applied to a line headed by its entry. A line that says so, or that is headed by a name, gives the form on record, which may keep a tag or linker. Residues count along the entry.
UniProt Q8N668: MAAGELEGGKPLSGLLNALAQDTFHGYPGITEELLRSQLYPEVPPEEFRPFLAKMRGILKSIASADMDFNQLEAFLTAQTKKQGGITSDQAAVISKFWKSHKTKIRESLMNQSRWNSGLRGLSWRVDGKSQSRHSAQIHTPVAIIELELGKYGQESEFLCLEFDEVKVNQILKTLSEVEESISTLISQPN
UniProt P13569: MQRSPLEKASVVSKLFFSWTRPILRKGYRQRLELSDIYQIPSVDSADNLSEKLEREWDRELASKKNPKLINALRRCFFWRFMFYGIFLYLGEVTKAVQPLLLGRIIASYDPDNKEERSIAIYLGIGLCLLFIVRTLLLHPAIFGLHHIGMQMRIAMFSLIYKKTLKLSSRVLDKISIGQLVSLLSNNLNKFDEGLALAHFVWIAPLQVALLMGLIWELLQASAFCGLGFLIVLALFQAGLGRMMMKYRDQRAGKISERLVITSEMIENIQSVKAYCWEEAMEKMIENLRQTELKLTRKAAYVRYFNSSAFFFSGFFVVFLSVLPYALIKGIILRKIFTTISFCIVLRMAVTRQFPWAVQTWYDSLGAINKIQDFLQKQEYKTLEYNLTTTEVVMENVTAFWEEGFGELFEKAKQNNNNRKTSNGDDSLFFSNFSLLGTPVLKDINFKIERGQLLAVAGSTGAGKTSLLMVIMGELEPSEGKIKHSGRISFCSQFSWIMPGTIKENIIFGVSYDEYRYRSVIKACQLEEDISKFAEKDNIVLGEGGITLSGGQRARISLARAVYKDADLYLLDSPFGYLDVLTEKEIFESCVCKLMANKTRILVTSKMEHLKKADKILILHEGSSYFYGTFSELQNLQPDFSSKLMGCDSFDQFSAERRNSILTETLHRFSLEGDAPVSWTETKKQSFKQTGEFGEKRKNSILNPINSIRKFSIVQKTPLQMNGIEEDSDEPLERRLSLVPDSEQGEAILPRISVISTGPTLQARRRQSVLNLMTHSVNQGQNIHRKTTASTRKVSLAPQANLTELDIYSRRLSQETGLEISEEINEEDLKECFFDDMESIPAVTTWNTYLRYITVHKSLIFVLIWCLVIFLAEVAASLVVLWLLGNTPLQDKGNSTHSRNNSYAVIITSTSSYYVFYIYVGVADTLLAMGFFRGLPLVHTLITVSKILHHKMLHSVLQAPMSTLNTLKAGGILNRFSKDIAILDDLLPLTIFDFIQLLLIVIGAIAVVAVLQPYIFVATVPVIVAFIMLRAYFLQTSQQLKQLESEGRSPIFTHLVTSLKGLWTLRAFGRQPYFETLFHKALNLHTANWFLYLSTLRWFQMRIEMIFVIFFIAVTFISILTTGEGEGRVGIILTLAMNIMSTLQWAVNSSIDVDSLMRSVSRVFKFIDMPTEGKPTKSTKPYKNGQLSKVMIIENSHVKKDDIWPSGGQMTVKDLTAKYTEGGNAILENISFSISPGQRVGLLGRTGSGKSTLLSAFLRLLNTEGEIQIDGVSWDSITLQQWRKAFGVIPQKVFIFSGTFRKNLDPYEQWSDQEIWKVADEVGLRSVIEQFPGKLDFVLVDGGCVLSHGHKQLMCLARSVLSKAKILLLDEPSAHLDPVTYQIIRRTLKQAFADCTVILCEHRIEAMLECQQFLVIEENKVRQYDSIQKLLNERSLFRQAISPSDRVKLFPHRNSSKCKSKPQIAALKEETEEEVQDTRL
third intracytoplasmic loop (ICL3) of CFTR, amino acids Leu937 to Pro988: residues 937-988 of P13569
CFTR ICL3 mutant D979A (P13569, form named): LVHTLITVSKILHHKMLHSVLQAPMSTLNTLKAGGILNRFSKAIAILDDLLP

Tests used:
[1] = molecular target: COMMD1, endogenous in HT-29 cells (human (endogenous in HT-29)) (UniProt Q8N668); test: co-IP; HT-29 lysates, endogenous proteins; IP with 0.8 µg anti-CFTR mAb (MAB25031) or 0.8 µg anti-COMMD1 mAb (Abnova), anti-mouse IgG as control; immunoblot for CFTR (MM13-4) and COMMD1 (rabbit pAb)
[2] = molecular target: third intracytoplasmic loop (ICL3) of CFTR, amino acids Leu937 to Pro988 (UniProt P13569); test: two-hybrid; yeast two-hybrid screen with CFTR ICL3 (Leu937 to Pro988) as bait
[3] = molecular target: CFTR ICL3 mutant D979A (UniProt P13569); test: two-hybrid; targeted yeast two-hybrid tests between COMMD1 and ICL3 mutants; data not shown
[4] = molecular target: CFTR (cystic fibrosis transmembrane conductance regulator), endogenous in HT-29 cells (human (endogenous in HT-29)) (UniProt P13569); test: co-IP; HT-29 lysates, endogenous proteins; IP with 0.8 µg anti-CFTR mAb (MAB25031) or 0.8 µg anti-COMMD1 mAb (Abnova), anti-mouse IgG as control; immunoblot for CFTR (MM13-4) and COMMD1 (rabbit pAb)
[5] = molecular target: K946R-CFTR (UniProt P13569); test: co-IP; HeLa cells co-transfected with Myc-COMMD1 or empty vector and wt, K946R, K951R or K978R-CFTR; CFTR IP, immunoblot with anti-c-Myc mAb
[6] = molecular target: wt-CFTR expressed in HeLa cells (pTracer-CMV construct) (UniProt P13569); test: as above
[7] = molecular target: K951R-CFTR (UniProt P13569); test: as above
[8] = molecular target: K978R-CFTR (UniProt P13569); test: as above
[9] = molecular target: wt-CFTR expressed in HeLa cells (pTracer-CMV construct) (UniProt P13569); test: co-IP; HeLa cells stably expressing wt-CFTR (spTCF-wt) transfected with Myc-COMMD1 or Myc-COMMD1ΔCOMM; CFTR IP, immunoblot with anti-c-Myc mAb; spTracer cells as control

binding [1]: binds
Substance: CFTR (cystic fibrosis transmembrane conductance regulator), endogenous in HT-29 cells (from UniProt P13569 1-1480)

binding [2]: binds
binding [3]: binds
Substance: human COMMD1 (amino acids 5-190), two-hybrid clone (from UniProt Q8N668 5-190) (domain or fragment)

binding [4]: binds
Substance: COMMD1, endogenous in HT-29 cells (from UniProt Q8N668 1-190)

binding [5]: binds
binding [6]: binds
binding [7]: binds
binding [8]: binds
binding [9]: binds
Substance: Myc-COMMD1 (from UniProt Q8N668 1-190)
